Results published in paper PMC10762002.
These are yes or no findings as the source states them, for the method shown. Binding calls can cover weak binding; strength is not graded here. For part of these data: Binding seen in cells or lysates may run through a third protein.

T1: endogenous Perilipin 1 (Plin1) (mouse (endogenous in WAT and 3T3-L1)) (UniProt Q8CGN5)
T1 sequence: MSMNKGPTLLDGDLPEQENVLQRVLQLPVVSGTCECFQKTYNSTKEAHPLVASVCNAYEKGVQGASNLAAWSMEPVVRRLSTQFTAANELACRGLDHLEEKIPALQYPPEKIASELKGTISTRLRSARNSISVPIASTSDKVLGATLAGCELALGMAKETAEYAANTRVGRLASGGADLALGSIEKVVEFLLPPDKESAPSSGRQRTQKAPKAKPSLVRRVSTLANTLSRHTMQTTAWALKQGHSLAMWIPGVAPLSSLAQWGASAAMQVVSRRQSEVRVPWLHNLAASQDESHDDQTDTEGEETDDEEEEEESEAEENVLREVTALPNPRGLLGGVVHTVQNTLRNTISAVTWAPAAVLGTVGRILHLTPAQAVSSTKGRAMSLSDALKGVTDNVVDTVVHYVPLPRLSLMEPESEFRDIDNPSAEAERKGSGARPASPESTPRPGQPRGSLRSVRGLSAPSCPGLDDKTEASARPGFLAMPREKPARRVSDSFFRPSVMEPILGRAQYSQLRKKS


Tests used:
[1] = target: T1, endogenous Perilipin 1 (Plin1) (mouse (endogenous in WAT and 3T3-L1)); assay: co-IP; total LD-associated proteins of mouse WAT (aP2-ApoL6 TG or WT; fasted or fed mice for Plin1-HSL); IP with Myc, Plin1 or ApoL6 antibody, immunoblot
[2] = target: endogenous ApoL6 (mouse (endogenous in WAT)); assay: as above
[3] = target: Myc-tagged ApoL6 (aP2-ApoL6 TG mice) (mouse); assay: as above
[4] = target: HA-tagged ApoL6 (adipoQ-ApoL6 TG mice) (mouse); assay: co-IP; sequential IP of cross-linked lysates: first HA beads, glycine elution, then HSL or Plin1 antibody; native PAGE; immunoblot with HA antibody, MS of the high molecular weight band
[5] = target: ApoL6-HA overexpressed in differentiated 3T3-L1 adipocytes (mouse); assay: as above
[6] = target: ApoL6-GST (mouse); assay: pull-down; purified ApoL6-GST proteins incubated with purified protein (Plin1, Plin1SD or ATGL); GST pull-down, immunoblot; both purified
[7] = target: ApoL6-GST (mouse); assay: pull-down; bacterially expressed GST-ApoL6 on glutathione-agarose beads incubated with 35S-methionine labelled in vitro translated proteins; SDS-PAGE, autoradiography; only the target purified
[8] = target: ApoL6-cVenus (mouse); assay: split reporter; BiFC with Venus fragments VN210 (on Plin1) and VC210 (on ApoL6), co-transfected cells, fluorescence imaging with LipidTOX

Molecule | binding [6] | binding [7] | also measured
Myc-tagged ApoL6 (aP2-ApoL6 TG mice) (mouse) | – | – | binding [1]: binds
endogenous Perilipin 1 (Plin1) (protein, UniProt Q8CGN5 1-517) MSMNKGPTLLDGDLPEQENVLQRVLQLPVVSGTCECFQKTYNSTKEAHPLVASVCNAYEKGVQGASNLAAWSMEPVVRRLSTQFTAANELACRGLDHLEEKIPALQYPPEKIASELKGTISTRLRSARNSISVPIASTSDKVLGATLAGCELALGMAKETAEYAANTRVGRLASGGADLALGSIEKVVEFLLPPDKESAPSSGRQRTQKAPKAKPSLVRRVSTLANTLSRHTMQTTAWALKQGHSLAMWIPGVAPLSSLAQWGASAAMQVVSRRQSEVRVPWLHNLAASQDESHDDQTDTEGEETDDEEEEEESEAEENVLREVTALPNPRGLLGGVVHTVQNTLRNTISAVTWAPAAVLGTVGRILHLTPAQAVSSTKGRAMSLSDALKGVTDNVVDTVVHYVPLPRLSLMEPESEFRDIDNPSAEAERKGSGARPASPESTPRPGQPRGSLRSVRGLSAPSCPGLDDKTEASARPGFLAMPREKPARRVSDSFFRPSVMEPILGRAQYSQLRKKS | – | – | binding [2]: binds; binding [3]: binds; binding [4]: binds; binding [5]: binds
Plin1-nVenus (protein, UniProt Q8CGN5 1-517) MSMNKGPTLLDGDLPEQENVLQRVLQLPVVSGTCECFQKTYNSTKEAHPLVASVCNAYEKGVQGASNLAAWSMEPVVRRLSTQFTAANELACRGLDHLEEKIPALQYPPEKIASELKGTISTRLRSARNSISVPIASTSDKVLGATLAGCELALGMAKETAEYAANTRVGRLASGGADLALGSIEKVVEFLLPPDKESAPSSGRQRTQKAPKAKPSLVRRVSTLANTLSRHTMQTTAWALKQGHSLAMWIPGVAPLSSLAQWGASAAMQVVSRRQSEVRVPWLHNLAASQDESHDDQTDTEGEETDDEEEEEESEAEENVLREVTALPNPRGLLGGVVHTVQNTLRNTISAVTWAPAAVLGTVGRILHLTPAQAVSSTKGRAMSLSDALKGVTDNVVDTVVHYVPLPRLSLMEPESEFRDIDNPSAEAERKGSGARPASPESTPRPGQPRGSLRSVRGLSAPSCPGLDDKTEASARPGFLAMPREKPARRVSDSFFRPSVMEPILGRAQYSQLRKKS | – | – | binding [8]: binds
in vitro translated ATGL (enzyme, UniProt Q8BJ56 1-486, 35S-labelled methionine) MFPRETKWNISFAGCGFLGVYHIGVASCLREHAPFLVANATHIYGASAGALTATALVTGACLGEAGANIIEVSKEARKRFLGPLHPSFNLVKTIRGCLLKTLPADCHERANGRLGISLTRVSDGENVIISHFSSKDELIQANVCSTFIPVYCGLIPPTLQGVRYVDGGISDNLPLYELKNTITVSPFSGESDICPQDSSTNIHELRVTNTSIQFNLRNLYRLSKALFPPEPMVLREMCKQGYRDGLRFLRRNGLLNQPNPLLALPPVVPQEEDAEEAAVVEERAGEEDQLQPYRKDRILEHLPARLNEALLEACVEPKDLMTTLSNMLPVRLATAMMVPYTLPLESAVSFTIRLLEWLPDVPEDIRWMKEQTGSICQYLVMRAKRKLGDHLPSRLSEQVELRRAQSLPSVPLSCATYSEALPNWVRNNLSLGDALAKWEECQRQLLLGLFCTNVAFPPDALRMRAPASPTAADPATPQDPPGLPPC | – | no binding | –
in vitro translated HSL (enzyme, UniProt P54310 1-759, 35S-labelled methionine) MDLRTMTQSLVTLAEDNMAFFSSQGPGETARRLSNVFAGVREQALGLEPTLGQLLGVAHHFDLDTETPANGYRSLVHTARCCLAHLLHKSRYVASNRKSIFFRASHNLAELEAYLAALTQLRAMAYYAQRLLTINRPGVLFFEGDEGLTADFLQEYVTLHKGCFYGRCLGFQFTPAIRPFLQTLSIGLVSFGEHYKRNETGLSVTASSLFTGGRFAIDPELRGAEFERIIQNLDVHFWKAFWNITEIEVLSSLANMASTTVRVSRLLSLPPEAFEMPLTSDPRLTVTISPPLAHTGPAPVLARLISYDLREGQDSKVLNSLAKSEGPRLELRPRPHQAPRSRALVVHIHGGGFVAQTSKSHEPYLKNWAQELGVPIFSIDYSLAPEAPFPRALEECFFAYCWAVKHCDLLGSTGERICLAGDSAGGNLCITVSLRAAAYGVRVPDGIMAAYPVTTLQSSASPSRLLSLMDPLLPLSVLSKCVSAYSGTEAEDHFDSDQKALGVMGLVQRDTSLFLRDLRLGASSWLNSFLELSGRKPQKTTSPTAESVRPTESMRRSVSEAALAQPEGLLGTDTLKKLTIKDLSNSEPSDSPEMSQSMETLGPSTPSDVNFFLRPGNSQEEAEAKDEVRPMDGVPRVRAAFPEGFHPRRSSQGVLHMPLYTSPIVKNPFMSPLLAPDSMLKTLPPVHLVACALDPMLDDSVMFARRLRDLGQPVTLKVVEDLPHGFLSLAALCRETRQATEFCVQRIRLILTPPAAPLN | – | no binding | –

Continued, in another order:

binding [6] | binding [7] | Molecule | also measured
binds | – | purified full length Plin1 (protein, UniProt Q8CGN5 1-517) MSMNKGPTLLDGDLPEQENVLQRVLQLPVVSGTCECFQKTYNSTKEAHPLVASVCNAYEKGVQGASNLAAWSMEPVVRRLSTQFTAANELACRGLDHLEEKIPALQYPPEKIASELKGTISTRLRSARNSISVPIASTSDKVLGATLAGCELALGMAKETAEYAANTRVGRLASGGADLALGSIEKVVEFLLPPDKESAPSSGRQRTQKAPKAKPSLVRRVSTLANTLSRHTMQTTAWALKQGHSLAMWIPGVAPLSSLAQWGASAAMQVVSRRQSEVRVPWLHNLAASQDESHDDQTDTEGEETDDEEEEEESEAEENVLREVTALPNPRGLLGGVVHTVQNTLRNTISAVTWAPAAVLGTVGRILHLTPAQAVSSTKGRAMSLSDALKGVTDNVVDTVVHYVPLPRLSLMEPESEFRDIDNPSAEAERKGSGARPASPESTPRPGQPRGSLRSVRGLSAPSCPGLDDKTEASARPGFLAMPREKPARRVSDSFFRPSVMEPILGRAQYSQLRKKS | –
– | binds | in vitro translated Plin1 (protein, UniProt Q8CGN5 1-517, 35S-labelled methionine) MSMNKGPTLLDGDLPEQENVLQRVLQLPVVSGTCECFQKTYNSTKEAHPLVASVCNAYEKGVQGASNLAAWSMEPVVRRLSTQFTAANELACRGLDHLEEKIPALQYPPEKIASELKGTISTRLRSARNSISVPIASTSDKVLGATLAGCELALGMAKETAEYAANTRVGRLASGGADLALGSIEKVVEFLLPPDKESAPSSGRQRTQKAPKAKPSLVRRVSTLANTLSRHTMQTTAWALKQGHSLAMWIPGVAPLSSLAQWGASAAMQVVSRRQSEVRVPWLHNLAASQDESHDDQTDTEGEETDDEEEEEESEAEENVLREVTALPNPRGLLGGVVHTVQNTLRNTISAVTWAPAAVLGTVGRILHLTPAQAVSSTKGRAMSLSDALKGVTDNVVDTVVHYVPLPRLSLMEPESEFRDIDNPSAEAERKGSGARPASPESTPRPGQPRGSLRSVRGLSAPSCPGLDDKTEASARPGFLAMPREKPARRVSDSFFRPSVMEPILGRAQYSQLRKKS | –
binds | – | purified Plin1SD (protein, UniProt Q8CGN5 1-517) MSMNKGPTLLDGDLPEQENVLQRVLQLPVVSGTCECFQKTYNSTKEAHPLVASVCNAYEKGVQGASNLAAWSMEPVVRRLDTQFTAANELACRGLDHLEEKIPALQYPPEKIASELKGTISTRLRSARNSISVPIASTSDKVLGATLAGCELALGMAKETAEYAANTRVGRLASGGADLALGSIEKVVEFLLPPDKESAPSSGRQRTQKAPKAKPSLVRRVDTLANTLSRHTMQTTAWALKQGHSLAMWIPGVAPLSSLAQWGASAAMQVVSRRQDEVRVPWLHNLAASQDESHDDQTDTEGEETDDEEEEEESEAEENVLREVTALPNPRGLLGGVVHTVQNTLRNTISAVTWAPAAVLGTVGRILHLTPAQAVSSTKGRAMSLSDALKGVTDNVVDTVVHYVPLPRLSLMEPESEFRDIDNPSAEAERKGSGARPASPESTPRPGQPRGSLRSVRGLSAPSCPGLDDKTEASARPGFLAMPREKPARRVSDSFFRPSVMEPILGRAQYSQLRKKS | –
no binding | – | purified ATGL (enzyme, UniProt Q8BJ56 1-486) MFPRETKWNISFAGCGFLGVYHIGVASCLREHAPFLVANATHIYGASAGALTATALVTGACLGEAGANIIEVSKEARKRFLGPLHPSFNLVKTIRGCLLKTLPADCHERANGRLGISLTRVSDGENVIISHFSSKDELIQANVCSTFIPVYCGLIPPTLQGVRYVDGGISDNLPLYELKNTITVSPFSGESDICPQDSSTNIHELRVTNTSIQFNLRNLYRLSKALFPPEPMVLREMCKQGYRDGLRFLRRNGLLNQPNPLLALPPVVPQEEDAEEAAVVEERAGEEDQLQPYRKDRILEHLPARLNEALLEACVEPKDLMTTLSNMLPVRLATAMMVPYTLPLESAVSFTIRLLEWLPDVPEDIRWMKEQTGSICQYLVMRAKRKLGDHLPSRLSEQVELRRAQSLPSVPLSCATYSEALPNWVRNNLSLGDALAKWEECQRQLLLGLFCTNVAFPPDALRMRAPASPTAADPATPQDPPGLPPC | –
